Laboratory results from patent US20160215013.
For at least one entry, the source does not settle the construct or the ends of the probe. Where a protein sequence is shown, tags need not be part of it.

Molecular target: T1, KOD exonuclease-minus DNA polymerase (UniProt P77933)
T1 sequence (looked up, limits assumed): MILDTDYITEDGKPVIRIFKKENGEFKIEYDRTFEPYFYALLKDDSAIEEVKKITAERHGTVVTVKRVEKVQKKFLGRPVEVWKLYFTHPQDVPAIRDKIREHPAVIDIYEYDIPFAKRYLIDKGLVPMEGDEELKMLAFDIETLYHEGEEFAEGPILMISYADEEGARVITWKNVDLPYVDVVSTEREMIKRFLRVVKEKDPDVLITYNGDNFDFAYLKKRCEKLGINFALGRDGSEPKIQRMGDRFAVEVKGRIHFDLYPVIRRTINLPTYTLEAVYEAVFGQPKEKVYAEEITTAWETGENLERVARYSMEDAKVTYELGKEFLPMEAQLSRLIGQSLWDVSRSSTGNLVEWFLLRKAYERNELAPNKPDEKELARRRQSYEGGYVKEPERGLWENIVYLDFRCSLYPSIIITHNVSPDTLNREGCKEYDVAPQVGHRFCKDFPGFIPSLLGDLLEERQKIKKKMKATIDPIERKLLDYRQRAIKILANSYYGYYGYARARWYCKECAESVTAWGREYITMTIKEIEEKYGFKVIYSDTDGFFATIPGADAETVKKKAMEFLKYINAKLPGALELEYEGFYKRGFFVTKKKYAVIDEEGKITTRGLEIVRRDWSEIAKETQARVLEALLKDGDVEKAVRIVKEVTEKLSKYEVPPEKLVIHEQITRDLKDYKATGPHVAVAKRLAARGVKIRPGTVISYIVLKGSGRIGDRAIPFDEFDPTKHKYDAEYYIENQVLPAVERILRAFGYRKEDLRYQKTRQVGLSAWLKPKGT
Assay: activity assay
Details: primer extension with dCTP; 119% with 9a (BndC), 113% with 9b (NapdC), 120% with 9c (PPdC), 5% without dC; Mg2+, pH 7.8, 65 C 1 h; purified recombinant protein; protein details: EMD Novagen; label: 32P on primer

## TTTTTTTTCTTCTTCTCCTTTCTCTTCCCAAAATCACACGGACCCAGGGCATTCTAGATATGGTTTACGCTCAAGCGAACTTGCCGTCCTGAGTGTAAAGAGGGAAAGAGGGCAGGGTGTGGCATATATAT / ATATATATGCCACACCCTGCCCTC [primer extension template/primer]
  activity on this sequence (% full length): 100
